{"source": "paper PMC11772975", "target": "LgBiT-p65, Q04206", "experiment": "split reporter", "settings": "remark: other sources report otherwise", "note": "Results are given in words; binding and its absence hold for the method and conditions named. In cells and extracts the contact can be indirect. Some results given as binding are weak or reduced against the parent protein; the word gives no strength.", "data": [{"binder": "SmBiT-IκBα, P25963 1-317 (protein) MFQAAERPQEWAMEGPRDGLKKERLLDDRHDSGLDSMKDEEYEQMVKELQEIRLEPQEVPRGSEPWKQQLTEDGDSFLHLAIIHEEKALTMEVIRQVKGDLAFLNFQNNLQQTPLHLAVITNQPEIAEALLGAGCDPELRDFRGNTPLHLACEQGCLASVGVLTQSCTTPHLHSILKATNYNGHTCLHLASIHGYLGIVELLVSLGADVNAQEPCNGRTALHLAVDLQNPDLVSLLLKCGADVNRVTYQGYSPYQLTWGRPSTRIQQQLGQLTLENLQMLPESEDEESYDTESEFTEFTEDELPYDDCVFGGQRLTL", "values": [{"measurement": "binding", "result": "binds"}]}]}
